# Counter-ions that a name gives are not always drawn. The list shows a part of the results. Repeats in this data set agree poorly, so a single value says little.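 Cells: ReNCell VM human fetal ventral-midbrain neural progenitors, differentiated mitogen-free. Blinded raters compared doublecortin-stained (early neurons) or tyrosine hydroxylase-stained (dopaminergic neurons) images with untreated wells, where 0 means no change. After repeats and both raters were averaged, compounds scoring 2 or above became hits for retesting.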
# Assays:
# ReNCell VM [1] = assay: neuronal differentiation score (DCX+ cell fraction vs untreated, manual image score) (score (-3 to 3)); higher = more neuronal differentiation; details: 2 uM, 2 weeks
# ReNCell VM [2] = assay: dopaminergic neuron differentiation score (TH+ cell fraction vs untreated, manual image score) (score (0 to 3)); higher = more TH+ dopaminergic neuron differentiation; details: 2 uM, 4 weeks, BDNF 10 ng/ml + GDNF 10 ng/ml
smiles,measurement,setting,value
O=C(CCCCCCC(=O)Nc1ccccc1)NO,neuronal differentiation score,ReNCell VM [1]; library: Spectrum,inactive: 0
same,dopaminergic neuron differentiation score,ReNCell VM [2]; library: Spectrum,inactive: 0
Cc1c(C)c2c(c(C)c1O)CCC(C)(CCCC(C)CCCC(C)CCCC(C)C)O2 (stereo not drawn) [alpha-TOCHOPHEROL],neuronal differentiation score,ReNCell VM [1]; library: Spectrum,inactive: 0
same,dopaminergic neuron differentiation score,ReNCell VM [2]; library: Spectrum,inactive: 0
Cc1nnc(SCC2=C(C(=O)O)N3C(=O)[C@@H](NC(=O)Cn4cnnn4)[C@H]3SC2)s1 [Cefazolin sodium],neuronal differentiation score,ReNCell VM [1]; library: LOPAC,inactive: 0
same,dopaminergic neuron differentiation score,ReNCell VM [2]; library: LOPAC,inactive: 0
CC(Oc1ccccc1)C(=O)N[C@@H]1C(=O)N2[C@@H]1SC(C)(C)[C@@H]2C(=O)O (stereo partly specified),neuronal differentiation score,ReNCell VM [1]; library: Spectrum,inactive: 0
same,dopaminergic neuron differentiation score,ReNCell VM [2]; library: Spectrum,inactive: 0
CCN(CC)C(=O)c1ccc(O)c(OC)c1 [Vanillic acid diethylamide],neuronal differentiation score,ReNCell VM [1]; library: LOPAC,inactive: -1
same,dopaminergic neuron differentiation score,ReNCell VM [2]; library: LOPAC,inactive: 0
N=C(NCCCCCCNC(=N)NC(=N)Nc1ccc(Cl)cc1)NC(=N)Nc1ccc(Cl)cc1 [Chlorhexidine],neuronal differentiation score,ReNCell VM [1]; library: Prestwick,inactive: 0
same,dopaminergic neuron differentiation score,ReNCell VM [2]; library: Prestwick,inactive: 0
CC1Oc2ccccc2C=C1/C=C/C(=O)O (stereo unspecified) [3-(2-methyl-2h-chromen-3-yl)-acrylic acid],neuronal differentiation score,ReNCell VM [1]; library: Natural,inactive: -1
same,dopaminergic neuron differentiation score,ReNCell VM [2]; library: Natural,inactive: 0
OCc1ccccc1O[C@@H]1O[C@H](CO)[C@@H](O)[C@H](O)[C@H]1O,neuronal differentiation score,ReNCell VM [1]; library: Spectrum,inactive: 0
same,dopaminergic neuron differentiation score,ReNCell VM [2]; library: Spectrum,inactive: 0
COc1cc(CNC(=O)CCCC/C=C/C(C)C)ccc1O,neuronal differentiation score,ReNCell VM [1]; library: Spectrum,inactive: 0
same,dopaminergic neuron differentiation score,ReNCell VM [2]; library: Spectrum,inactive: 0
CN[C@H]1CC[C@@H](c2ccc(Cl)c(Cl)c2)c2ccccc21 [Sertraline],neuronal differentiation score,ReNCell VM [1]; library: Prestwick,inactive: 0
same,dopaminergic neuron differentiation score,ReNCell VM [2]; library: Prestwick,inactive: 0
CNC(=C[N+](=O)[O-])NCCSCc1ccc(CN(C)C)o1,neuronal differentiation score,ReNCell VM [1]; library: Spectrum,inactive: -1
same,dopaminergic neuron differentiation score,ReNCell VM [2]; library: Spectrum,inactive: 0
CCN(CC)CCN[C@@H](C(=O)OCCC(C)C)c1ccccc1 [Camylofine chlorhydrate],neuronal differentiation score,ReNCell VM [1]; library: Prestwick,inactive: 0
same,dopaminergic neuron differentiation score,ReNCell VM [2]; library: Prestwick,inactive: 0
CC(=O)OCC(=O)[C@H]1CC[C@H]2[C@@H]3CC=C4C[C@@H](O)CC[C@]4(C)[C@H]3CC[C@]12C,neuronal differentiation score,ReNCell VM [1]; library: Spectrum,inactive: 0
same,dopaminergic neuron differentiation score,ReNCell VM [2]; library: Spectrum,inactive: 0
CC(NCCc1ccc(O)cc1)C(O)c1ccc(O)cc1 (stereo unspecified),neuronal differentiation score,ReNCell VM [1]; library: Spectrum,inactive: 0
same,dopaminergic neuron differentiation score,ReNCell VM [2]; library: Spectrum,inactive: 0
O=C1c2c(O)cccc2Cc2cccc(O)c21 [Anthralin],neuronal differentiation score,ReNCell VM [1]; library: Prestwick,inactive: 0
same,dopaminergic neuron differentiation score,ReNCell VM [2]; library: Prestwick,inactive: 0
CC1(C)CCC[C@](C)([C@H]2CC[C@]3(C)[C@@H]2[C@H](O)C[C@@H]2[C@@]4(C)CC[C@H](O)C(C)(C)[C@@H]4[C@@H](O)C[C@]23C)O1 [panaxatriol],neuronal differentiation score,ReNCell VM [1]; library: Natural,inactive: 1
same,dopaminergic neuron differentiation score,ReNCell VM [2]; library: Natural,inactive: 0
O=NN(CCCl)C(=O)NC1CCCCC1,neuronal differentiation score,ReNCell VM [1]; library: Spectrum,inactive: 0
same,dopaminergic neuron differentiation score,ReNCell VM [2]; library: Spectrum,inactive: 0
C#C[C@]1(O)CC[C@H]2[C@@H]3CCc4cc(O)ccc4[C@H]3CC[C@@]21C,neuronal differentiation score,ReNCell VM [1]; library: Spectrum,inactive: -1
same,dopaminergic neuron differentiation score,ReNCell VM [2]; library: Spectrum,inactive: 0
O=c1[nH]c2cc(C(F)(F)F)c(N3CCOCC3)cc2n(CP(=O)(O)O)c1=O,neuronal differentiation score,ReNCell VM [1]; library: Tocriscreen,inactive: 0
same,dopaminergic neuron differentiation score,ReNCell VM [2]; library: Tocriscreen,inactive: 0
COc1ccc(C(C)=O)c(O)c1,neuronal differentiation score,ReNCell VM [1]; library: Spectrum,inactive: 0
same,dopaminergic neuron differentiation score,ReNCell VM [2]; library: Spectrum,inactive: 0
FC(F)(F)c1ccccc1-n1ccnc1 [1-[2-(Trifluoromethyl)phenyl]imidazole],neuronal differentiation score,ReNCell VM [1]; library: LOPAC,inactive: 0
same,dopaminergic neuron differentiation score,ReNCell VM [2]; library: LOPAC,inactive: 0
C[C@@H](CN1CCC(n2c(=O)[nH]c3cc(Cl)ccc32)CC1)NC(=O)c1ccc2ccccc2c1,neuronal differentiation score,ReNCell VM [1]; library: Tocriscreen,inactive: 0
same,dopaminergic neuron differentiation score,ReNCell VM [2]; library: Tocriscreen,inactive: 0
CO[C@@]1(NC(=O)Cc2cccs2)C(=O)N2C(C(=O)O)=C(COC(N)=O)CS[C@@H]21 [Cefoxitin sodium salt],neuronal differentiation score,ReNCell VM [1]; library: Prestwick,inactive: 0
same,dopaminergic neuron differentiation score,ReNCell VM [2]; library: Prestwick,inactive: 0
O=c1[nH]c(-c2ccccc2O)nc2ccccc12 [2-(2-hydroxy-phenyl)-3h-quinazolin-4-one],neuronal differentiation score,ReNCell VM [1]; library: Natural,inactive: -1
same,dopaminergic neuron differentiation score,ReNCell VM [2]; library: Natural,inactive: 0
O=C(/C=C/C=C/c1ccc2c(c1)OCO2)N1CCCCC1,neuronal differentiation score,ReNCell VM [1]; library: Spectrum,inactive: 0
same,dopaminergic neuron differentiation score,ReNCell VM [2]; library: Spectrum,inactive: 0
N=C(N)NCc1cccc(I)c1 [Iobenguane sulfate],neuronal differentiation score,ReNCell VM [1]; library: Prestwick,inactive: 0
same,dopaminergic neuron differentiation score,ReNCell VM [2]; library: Prestwick,inactive: 0
COc1ccc2c(c1)OC[C@H]1c3cc4c(cc3O[C@@H]21)OCO4 [pterocarpin methylether],neuronal differentiation score,ReNCell VM [1]; library: Natural,inactive: 0
same,dopaminergic neuron differentiation score,ReNCell VM [2]; library: Natural,inactive: 0
Cc1cn([C@H]2C=C[C@@H](CO)O2)c(=O)[nH]c1=O,neuronal differentiation score,ReNCell VM [1]; library: Spectrum,inactive: 0
same,dopaminergic neuron differentiation score,ReNCell VM [2]; library: Spectrum,inactive: 1
Oc1ncnc2[nH]ncc12,neuronal differentiation score,ReNCell VM [1]; library: Spectrum,inactive: 0
same,dopaminergic neuron differentiation score,ReNCell VM [2]; library: Spectrum,inactive: 0
CCCCCCCCCCCCCCCC(=O)OC(CC(=O)O)C[N+](C)(C)C (racemic) [Palmitoyl-DL-Carnitine chloride],neuronal differentiation score,ReNCell VM [1]; library: LOPAC,active: 2
same,dopaminergic neuron differentiation score,ReNCell VM [2]; library: LOPAC,inactive: 0
CCOC(=O)c1ncc2[nH]c3cccc(OC(C)C)c3c2c1C,neuronal differentiation score,ReNCell VM [1]; library: Tocriscreen,inactive: 0
same,dopaminergic neuron differentiation score,ReNCell VM [2]; library: Tocriscreen,inactive: 0
CCN(CC)C(=O)c1ccc(O)c(OC)c1,neuronal differentiation score,ReNCell VM [1]; library: Spectrum,inactive: 0
same,dopaminergic neuron differentiation score,ReNCell VM [2]; library: Spectrum,inactive: 0
FCOC(C(F)(F)F)C(F)(F)F,neuronal differentiation score,ReNCell VM [1]; library: Spectrum,inactive: 0
same,dopaminergic neuron differentiation score,ReNCell VM [2]; library: Spectrum,inactive: 0

# 5 records drawn at random from the list so far, as already listed:
smiles,measurement,setting,value
C#C[C@]1(O)CC[C@H]2[C@@H]3CCc4cc(O)ccc4[C@H]3CC[C@@]21C,neuronal differentiation score,ReNCell VM [1]; library: Spectrum,inactive: -1
Oc1ncnc2[nH]ncc12,neuronal differentiation score,ReNCell VM [1]; library: Spectrum,inactive: 0
O=C(/C=C/C=C/c1ccc2c(c1)OCO2)N1CCCCC1,neuronal differentiation score,ReNCell VM [1]; library: Spectrum,inactive: 0
CN[C@H]1CC[C@@H](c2ccc(Cl)c(Cl)c2)c2ccccc21 [Sertraline],neuronal differentiation score,ReNCell VM [1]; library: Prestwick,inactive: 0
Cc1c(C)c2c(c(C)c1O)CCC(C)(CCCC(C)CCCC(C)CCCC(C)C)O2 (stereo not drawn) [alpha-TOCHOPHEROL],neuronal differentiation score,ReNCell VM [1]; library: Spectrum,inactive: 0

# Source: the supplement of paper PMC4635364
